Some of these results come from one statement about several compounds together.
Tested on: rats subjected to li-pilo SE
Experiment: Quantification of cell densities 14 days after lithium-pilocarpine SE (Example 2)
Type: in vivo, rat
Conditions: DZP and TC30, 60 and 90 groups together, 14 days after SE
Procedure: All rats received lithium chloride (3 meq/kg, i.p., Sigma, St Louis, Mo., U.S.A.) and about 20 h later, all animals received also methylscopolamine bromide (1 mg/kg, s.c., Sigma) that was administered to limit the peripheral effects of the convulsant. SE was induced by injecting pilocarpine hydrochloride (25 mg/kg, s.c., Sigma) 30 min after methylscopolamine. The effects of increasing doses of TC (RWJ) were studied in 5 groups of rats. […] The control group received vehicle instead of pilocarpine and TC.
At the moment, neuronal counting is still in progress in the second group of animals studied for epileptogenesis and long-term counting and the data concerning that part of the study will not be included in the present report. For neuronal counting, animals were deeply anesthetized with […] pentobarbital (Dolethal®, Vetoquinol, Lure, France). Brains were then removed and frozen. Serial 20 μm slices were cut in a cryostat, air-dried during several days before thionine staining. […] The grid of counting was placed on a well defined area of the cerebral structure of interest and counting was carried out with a microscopic enlargement of 200- or 400-fold defined for each single cerebral structure. […] The number of cells obtained in the 12 counted fields in each cerebral structure was averaged. […] Cells with small cell bodies were considered as glial cells and were not counted. […]

`CN1C(=O)CN=C(c2ccccc2)c2cc(Cl)ccc21` [DZP, diazepam, reference compound] was tested, and the “cell loss (drop out), hilus of the dentate gyrus” value was 61-66%.
